Values of other authors in patent publication US5126057A, “Disinfecting with N,N'-dihaloimidazolidin-4-ones” (Auburn Research Foundation, priority 1991, dated 1992).
For at least one compound, name, drawing or mass did not settle the structure.

Details: reported by G. D. Nelson, Kirk-Othmer 1979; cited from earlier work

Q: For `CC1(C)C(=O)N(Cl)C(=O)N1Cl` [dichlorodimethylhydantoin], which hydrolysis equilibrium constant is on record?
A: Its hydrolysis equilibrium constant is 2.54×10^-4.
